In the supplement of paper PMC12067093, “Discovery and optimisation of a covalent ligand for TRIM25 and its application to targeted protein ubiquitination” (Chemical Science, 2025):
The other results are listed elsewhere or left out.

Chains of the proteins cited; added tags and fusions are not shown. Lines headed by an entry give the natural chain unless they say otherwise; changes in a name come on top.
UniProt O75530, whole entry, looked up: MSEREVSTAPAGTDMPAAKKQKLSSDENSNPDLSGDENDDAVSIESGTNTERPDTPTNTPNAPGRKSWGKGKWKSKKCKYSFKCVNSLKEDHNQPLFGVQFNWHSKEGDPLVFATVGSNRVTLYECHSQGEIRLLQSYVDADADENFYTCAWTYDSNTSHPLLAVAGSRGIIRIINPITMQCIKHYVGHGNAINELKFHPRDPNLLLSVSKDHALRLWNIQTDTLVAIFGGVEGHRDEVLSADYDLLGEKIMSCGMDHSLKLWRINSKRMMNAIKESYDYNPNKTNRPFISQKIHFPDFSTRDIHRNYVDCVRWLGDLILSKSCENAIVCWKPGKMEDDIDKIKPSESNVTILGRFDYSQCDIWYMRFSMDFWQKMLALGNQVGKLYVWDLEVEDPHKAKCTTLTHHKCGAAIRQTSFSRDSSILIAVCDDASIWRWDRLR
UniProt Q15029: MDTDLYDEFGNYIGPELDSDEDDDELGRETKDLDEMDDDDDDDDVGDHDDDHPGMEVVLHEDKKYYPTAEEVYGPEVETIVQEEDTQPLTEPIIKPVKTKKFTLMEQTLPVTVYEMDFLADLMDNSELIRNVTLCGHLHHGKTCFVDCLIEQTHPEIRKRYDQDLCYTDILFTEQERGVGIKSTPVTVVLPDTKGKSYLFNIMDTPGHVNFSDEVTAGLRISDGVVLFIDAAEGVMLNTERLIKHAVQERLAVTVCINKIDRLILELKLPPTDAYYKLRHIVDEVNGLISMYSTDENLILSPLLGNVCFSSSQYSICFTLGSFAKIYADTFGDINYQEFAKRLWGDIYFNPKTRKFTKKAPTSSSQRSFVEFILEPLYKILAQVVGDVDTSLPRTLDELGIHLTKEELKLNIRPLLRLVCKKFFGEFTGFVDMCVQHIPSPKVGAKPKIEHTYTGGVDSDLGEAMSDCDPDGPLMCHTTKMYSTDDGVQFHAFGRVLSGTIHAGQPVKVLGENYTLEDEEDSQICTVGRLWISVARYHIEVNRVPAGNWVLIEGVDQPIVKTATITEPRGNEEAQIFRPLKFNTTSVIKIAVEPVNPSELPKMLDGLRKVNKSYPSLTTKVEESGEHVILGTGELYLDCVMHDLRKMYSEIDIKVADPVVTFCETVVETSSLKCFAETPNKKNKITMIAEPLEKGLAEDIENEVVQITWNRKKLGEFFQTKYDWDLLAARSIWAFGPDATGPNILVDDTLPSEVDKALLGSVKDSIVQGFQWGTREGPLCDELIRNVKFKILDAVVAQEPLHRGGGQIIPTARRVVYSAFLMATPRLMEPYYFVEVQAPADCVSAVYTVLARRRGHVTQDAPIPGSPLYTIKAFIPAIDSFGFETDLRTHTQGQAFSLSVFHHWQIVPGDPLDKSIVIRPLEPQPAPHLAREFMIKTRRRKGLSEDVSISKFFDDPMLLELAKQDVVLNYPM
UniProt Q9GZT9: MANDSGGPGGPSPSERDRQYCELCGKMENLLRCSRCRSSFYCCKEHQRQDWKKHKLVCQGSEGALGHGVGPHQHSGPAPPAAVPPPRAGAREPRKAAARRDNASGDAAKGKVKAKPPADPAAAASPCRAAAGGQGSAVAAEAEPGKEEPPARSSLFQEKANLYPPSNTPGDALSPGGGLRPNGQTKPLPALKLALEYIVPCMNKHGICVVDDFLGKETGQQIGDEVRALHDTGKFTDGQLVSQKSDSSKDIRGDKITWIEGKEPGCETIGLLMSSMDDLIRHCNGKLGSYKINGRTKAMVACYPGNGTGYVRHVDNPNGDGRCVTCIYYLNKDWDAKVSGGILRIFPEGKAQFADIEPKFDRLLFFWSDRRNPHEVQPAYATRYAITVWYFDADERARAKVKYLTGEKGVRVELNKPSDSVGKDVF
UniProt Q96F86: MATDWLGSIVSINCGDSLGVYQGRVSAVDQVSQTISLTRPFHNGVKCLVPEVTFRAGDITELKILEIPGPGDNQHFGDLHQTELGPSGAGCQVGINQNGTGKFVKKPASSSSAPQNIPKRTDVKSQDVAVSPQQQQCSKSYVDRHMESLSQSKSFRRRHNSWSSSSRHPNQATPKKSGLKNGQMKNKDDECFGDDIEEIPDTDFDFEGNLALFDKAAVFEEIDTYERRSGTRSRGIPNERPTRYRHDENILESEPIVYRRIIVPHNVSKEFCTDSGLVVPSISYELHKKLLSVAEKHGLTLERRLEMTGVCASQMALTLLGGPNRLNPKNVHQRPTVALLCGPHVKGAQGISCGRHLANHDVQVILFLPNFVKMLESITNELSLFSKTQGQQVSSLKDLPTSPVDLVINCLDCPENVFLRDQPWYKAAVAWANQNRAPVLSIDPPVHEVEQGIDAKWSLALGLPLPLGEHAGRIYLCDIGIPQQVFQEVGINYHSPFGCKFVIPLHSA
UniProt P57772: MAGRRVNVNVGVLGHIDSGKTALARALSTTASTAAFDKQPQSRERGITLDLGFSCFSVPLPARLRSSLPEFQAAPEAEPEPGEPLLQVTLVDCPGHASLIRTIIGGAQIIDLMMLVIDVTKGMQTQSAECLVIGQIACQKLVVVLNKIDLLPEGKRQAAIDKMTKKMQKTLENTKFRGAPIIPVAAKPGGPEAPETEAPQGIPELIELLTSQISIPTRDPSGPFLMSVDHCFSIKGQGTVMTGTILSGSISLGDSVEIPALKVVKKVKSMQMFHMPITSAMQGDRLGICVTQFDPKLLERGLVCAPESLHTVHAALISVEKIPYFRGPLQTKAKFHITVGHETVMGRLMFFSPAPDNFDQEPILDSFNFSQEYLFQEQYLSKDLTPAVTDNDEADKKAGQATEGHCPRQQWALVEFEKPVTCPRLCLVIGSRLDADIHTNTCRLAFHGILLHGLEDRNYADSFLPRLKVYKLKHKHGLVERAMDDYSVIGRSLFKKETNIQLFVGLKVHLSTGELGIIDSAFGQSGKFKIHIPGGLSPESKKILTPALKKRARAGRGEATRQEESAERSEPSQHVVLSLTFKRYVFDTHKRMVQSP
UniProt Q96KQ7: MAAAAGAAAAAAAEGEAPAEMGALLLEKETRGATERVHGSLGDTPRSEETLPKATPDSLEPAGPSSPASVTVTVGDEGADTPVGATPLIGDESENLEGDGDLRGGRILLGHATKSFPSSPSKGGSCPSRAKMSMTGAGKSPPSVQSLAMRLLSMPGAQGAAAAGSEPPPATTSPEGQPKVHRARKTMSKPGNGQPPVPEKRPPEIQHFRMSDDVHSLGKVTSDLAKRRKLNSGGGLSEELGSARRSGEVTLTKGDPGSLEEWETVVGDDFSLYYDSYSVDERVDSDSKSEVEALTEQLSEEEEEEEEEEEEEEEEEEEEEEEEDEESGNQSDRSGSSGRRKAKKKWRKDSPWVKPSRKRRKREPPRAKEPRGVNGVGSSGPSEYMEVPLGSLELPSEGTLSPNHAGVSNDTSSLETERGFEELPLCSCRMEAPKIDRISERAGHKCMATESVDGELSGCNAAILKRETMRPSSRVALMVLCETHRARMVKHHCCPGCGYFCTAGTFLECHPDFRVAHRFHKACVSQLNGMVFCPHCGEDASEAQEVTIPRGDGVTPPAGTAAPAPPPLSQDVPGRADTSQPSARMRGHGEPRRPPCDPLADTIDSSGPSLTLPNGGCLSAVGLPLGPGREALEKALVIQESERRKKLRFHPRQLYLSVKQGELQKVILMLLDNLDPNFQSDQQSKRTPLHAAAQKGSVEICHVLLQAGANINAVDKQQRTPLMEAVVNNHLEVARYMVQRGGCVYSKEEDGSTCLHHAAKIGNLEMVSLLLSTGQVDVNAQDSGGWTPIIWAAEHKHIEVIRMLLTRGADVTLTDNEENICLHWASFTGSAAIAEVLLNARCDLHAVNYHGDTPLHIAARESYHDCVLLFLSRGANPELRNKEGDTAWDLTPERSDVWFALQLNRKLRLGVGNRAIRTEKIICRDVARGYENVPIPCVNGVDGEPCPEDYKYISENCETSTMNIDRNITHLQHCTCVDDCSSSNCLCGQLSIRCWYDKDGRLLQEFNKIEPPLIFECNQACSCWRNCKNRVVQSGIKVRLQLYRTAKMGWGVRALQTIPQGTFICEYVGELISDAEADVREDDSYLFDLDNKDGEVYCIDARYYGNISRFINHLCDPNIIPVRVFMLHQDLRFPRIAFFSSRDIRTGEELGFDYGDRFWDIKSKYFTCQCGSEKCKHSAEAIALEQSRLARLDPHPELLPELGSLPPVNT
UniProt Q9BY44: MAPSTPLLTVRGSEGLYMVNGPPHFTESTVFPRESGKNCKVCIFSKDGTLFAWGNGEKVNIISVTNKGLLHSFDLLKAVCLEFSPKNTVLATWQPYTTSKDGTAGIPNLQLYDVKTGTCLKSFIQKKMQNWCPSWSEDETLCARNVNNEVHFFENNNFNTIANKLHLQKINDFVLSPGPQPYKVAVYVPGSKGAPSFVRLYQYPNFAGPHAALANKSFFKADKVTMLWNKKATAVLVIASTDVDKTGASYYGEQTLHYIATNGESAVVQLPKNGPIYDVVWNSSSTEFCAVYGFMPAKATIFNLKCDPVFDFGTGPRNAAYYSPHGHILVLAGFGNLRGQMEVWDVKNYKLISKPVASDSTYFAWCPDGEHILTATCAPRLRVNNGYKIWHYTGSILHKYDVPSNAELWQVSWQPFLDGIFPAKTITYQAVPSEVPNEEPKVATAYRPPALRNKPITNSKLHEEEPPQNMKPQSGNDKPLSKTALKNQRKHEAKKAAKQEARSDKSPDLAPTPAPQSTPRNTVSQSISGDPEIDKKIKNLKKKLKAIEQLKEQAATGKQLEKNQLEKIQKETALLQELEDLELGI
UniProt P20042, whole entry, looked up: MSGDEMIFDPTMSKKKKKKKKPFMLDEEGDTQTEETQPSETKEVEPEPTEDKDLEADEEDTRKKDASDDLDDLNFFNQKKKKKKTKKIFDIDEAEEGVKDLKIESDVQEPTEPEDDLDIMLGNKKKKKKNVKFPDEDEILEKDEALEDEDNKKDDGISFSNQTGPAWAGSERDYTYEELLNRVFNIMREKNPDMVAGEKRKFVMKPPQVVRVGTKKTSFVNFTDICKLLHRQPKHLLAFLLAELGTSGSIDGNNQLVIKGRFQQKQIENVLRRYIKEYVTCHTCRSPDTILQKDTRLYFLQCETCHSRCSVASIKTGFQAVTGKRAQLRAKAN
UniProt Q12805: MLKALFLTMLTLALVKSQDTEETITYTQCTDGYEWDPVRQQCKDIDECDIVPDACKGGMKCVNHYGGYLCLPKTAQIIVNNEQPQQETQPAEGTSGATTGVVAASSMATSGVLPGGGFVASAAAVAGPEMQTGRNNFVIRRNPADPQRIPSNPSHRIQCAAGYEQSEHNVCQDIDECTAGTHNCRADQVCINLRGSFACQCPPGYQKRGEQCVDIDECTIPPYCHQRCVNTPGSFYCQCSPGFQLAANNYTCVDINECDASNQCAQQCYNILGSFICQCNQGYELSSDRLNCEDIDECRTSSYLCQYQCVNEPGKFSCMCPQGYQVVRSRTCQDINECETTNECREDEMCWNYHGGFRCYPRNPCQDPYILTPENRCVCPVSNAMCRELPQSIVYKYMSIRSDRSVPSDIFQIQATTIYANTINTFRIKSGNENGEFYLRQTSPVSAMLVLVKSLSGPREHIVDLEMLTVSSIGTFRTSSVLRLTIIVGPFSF
UniProt P41214: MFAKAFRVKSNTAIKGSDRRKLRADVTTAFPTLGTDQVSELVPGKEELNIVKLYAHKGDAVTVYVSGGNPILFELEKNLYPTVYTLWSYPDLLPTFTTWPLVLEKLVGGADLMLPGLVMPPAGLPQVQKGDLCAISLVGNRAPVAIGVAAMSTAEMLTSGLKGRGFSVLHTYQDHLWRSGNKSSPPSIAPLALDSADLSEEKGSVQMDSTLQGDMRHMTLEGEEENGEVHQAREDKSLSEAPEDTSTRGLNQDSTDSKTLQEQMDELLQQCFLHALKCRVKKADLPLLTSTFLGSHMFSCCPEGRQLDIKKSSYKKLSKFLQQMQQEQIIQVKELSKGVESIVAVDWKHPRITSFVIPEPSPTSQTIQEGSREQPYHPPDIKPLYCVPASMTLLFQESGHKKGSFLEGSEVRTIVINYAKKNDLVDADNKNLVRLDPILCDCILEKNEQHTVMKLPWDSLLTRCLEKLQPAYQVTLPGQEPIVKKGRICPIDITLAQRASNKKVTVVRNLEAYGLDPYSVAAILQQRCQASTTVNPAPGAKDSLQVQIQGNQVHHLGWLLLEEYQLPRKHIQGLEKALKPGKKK
UniProt P05198, whole entry, looked up: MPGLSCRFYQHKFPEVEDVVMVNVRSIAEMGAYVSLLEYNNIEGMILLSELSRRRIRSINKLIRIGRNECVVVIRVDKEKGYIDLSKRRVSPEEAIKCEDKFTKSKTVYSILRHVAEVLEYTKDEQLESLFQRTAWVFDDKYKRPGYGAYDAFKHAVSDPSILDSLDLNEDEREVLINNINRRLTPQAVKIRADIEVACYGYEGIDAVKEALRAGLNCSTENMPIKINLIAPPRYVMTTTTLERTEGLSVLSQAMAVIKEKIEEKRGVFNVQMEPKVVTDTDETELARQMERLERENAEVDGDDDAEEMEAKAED

Compound: Cc1cc(ccc1-c1ccccc1)C(=O)N1CCCN(CC1)C(=O)CCl [compound 10]
Assay: probe-labelled cysteine peptide fold change vs DMSO (competition) (log2 fold change); higher = less target engagement (more negative = stronger competition)
Conditions: THP-1, incubation time: 4 h
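Note: competitive profiling in live THP-1 cells: cysteine peptides tagged with an iodoacetamide desthiobiotin (IA-DTB) probe, intensity after compound treatment relative to DMSO-treated cells.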

Row | Target | probe-labelled cysteine peptide fold change (10 µM) | probe-labelled cysteine peptide fold change (50 µM)
1 | EFL1_Q7Z2Z2_474_LAAAQGQAPLEPTQDGSAIETCPK (UniProt Q7Z2Z2) | -0.111 | -0.0536
2 | EHMT1_Q9H9B1_802_SPLHAAAEAGHVDICHMLVQAGANIDTCSEDQR (UniProt Q9H9B1) | 0.0504 | -0.286
3 | EEF2_P13639_651_IWCFGPDGTGPNILTDITK (UniProt P13639) | 0.0628 | 0.112
4 | EED_O75530_401_CTTLTHHK (UniProt O75530) | -0.000298 | -0.134
5 | EFTUD2_Q15029_525_VLGENYTLEDEEDSQICTVGR (UniProt Q15029) | -0.0378 | 0.284
6 | ECHS1_P30084_62_ALNALCDGLIDELNQALK (UniProt P30084) | 0.209 | 0.177
7 | EGLN1_Q9GZT9_201_LALEYIVPCMNK (UniProt Q9GZT9) | -0.0652 | -0.18
8 | EEF2_P13639_567_DLEEDHACIPIKK (UniProt P13639) | -0.0692 | 0.0362
9 | EDC3_Q96F86_353_GAQGISCGR (UniProt Q96F86) | 0.00539 | -0.268
10 | EFTUD2_Q15029_166_RYDQDLCYTDILFTEQER (UniProt Q15029) | -0.0828 | -0.161
11 | EEFSEC_P57772_55_GITLDLGFSCFSVPLPAR (UniProt P57772) | 0.415 | -0.0944
12 | EHMT2_Q96KQ7_1115_FINHLCDPNIIPVR (UniProt Q96KQ7) | 0.1 | 0.215
13 | EGLN1_Q9GZT9_326_CVTCIYYLNK (UniProt Q9GZT9) | 0.165 | -0.189
14 | EIF2A_Q9BY44_306_CDPVFDFGTGPR (UniProt Q9BY44) | 0.127 | 0.176
15 | EIF2S2_P20042_281+284_EYVTCHTCR (UniProt P20042) | -0.0391 | -0.0656
16 | EEF2_P13639_693_EGALCEENMR (UniProt P13639) | -0.222 | -0.128
17 | EEF1AKMT1_Q8WVE0_149_IAAHSFDIVIADPPYLSEECLR (UniProt Q8WVE0) | 0.0999 | -0.165
18 | EHMT2_Q96KQ7_946_GYENVPIPCVNGVDGEPCPEDYK (UniProt Q96KQ7) | -0.0885 | 0.137
19 | EFEMP1_Q12805_190_ADQVCINLR (UniProt Q12805) | -0.311 | -0.139

In another format: results already given.
EGLN1_Q9GZT9_326_CVTCIYYLNK (UniProt Q9GZT9)
  probe-labelled cysteine peptide fold change (10 µM) = 0.165
  probe-labelled cysteine peptide fold change (50 µM) = -0.189
EIF2A_Q9BY44_306_CDPVFDFGTGPR (UniProt Q9BY44)
  probe-labelled cysteine peptide fold change (10 µM) = 0.127
  probe-labelled cysteine peptide fold change (50 µM) = 0.176

(list continues)

Row | Target | probe-labelled cysteine peptide fold change (10 µM) | probe-labelled cysteine peptide fold change (50 µM)
20 | EIF2B5_Q13144_414_VAAGAQIHQSLLCDNAEVK (UniProt Q13144) | -0.0816 | -0.131
21 | EIF2B3_Q9NR50_64_ALCAEFK (UniProt Q9NR50) | 0.136 | -0.126
22 | EDC3_Q96F86_272_EFCTDSGLVVPSISYELHKK (UniProt Q96F86) | 0.00217 | -0.291
23 | EEF2_P13639_751_LMEPIYLVEIQCPEQVVGGIYGVLNR (UniProt P13639) | 0.113 | 0.132
24 | EHMT1_Q9H9B1_842_DAEGSTCLHLAAK (UniProt Q9H9B1) | 0.306 | 0.322
25 | EIF2D_P41214_271_TLQEQMDELLQQCFLHALK (UniProt P41214) | 0.24 | -0.407
26 | EIF2AK2_P19525_121_LTVNYEQCASGVHGPEGFHYK (UniProt P19525) | 0.0266 | 0.0963
27 | EIF2S1_P05198_199_ADIEVACYGYEGIDAVK (UniProt P05198) | -0.0299 | 0.126
28 | EEF1G_P26641_266_KAAAPAPEEEMDECEQALAAEPK (UniProt P26641) | -0.218 | -0.753
29 | EIF2S1_P05198_70_NECVVVIR (UniProt P05198) | 0.116 | 0.42
30 | EFEMP1_Q12805_338_TCQDINECETTNECREDEMCWNYHGGFR (UniProt Q12805) | -0.451 | -0.112
31 | EHMT1_Q9H9B1_1203_FINHHCEPNLVPVR (UniProt Q9H9B1) | 0.0729 | 0.084
32 | EEF2_P13639_728_CLYASVLTAQPR (UniProt P13639) | -0.0983 | -0.0617
33 | EEF1A1_P68104_234_KDGNASGTTLLEALDCILPPTRPTDKPLR (UniProt P68104) | -0.0544 | -0.699
34 | EGFL7_Q9UHF1_269_IDSLSEQISFLEEQLGSCSCK (UniProt Q9UHF1) | -0.11 | 0.0781
35 | EHMT1_Q9H9B1_575_APLLVLCEDHR (UniProt Q9H9B1) | -0.125 | -0.239
36 | EED_O75530_361_FDYSQCDIWYMR (UniProt O75530) | 0.106 | 0.468
37 | EFTUD2_Q15029_639_VEESGEHVILGTGELYLDCVMHDLR (UniProt Q15029) | 0.166 | 0.181
38 | EED_O75530_324+330_SCENAIVCWKPGK (UniProt O75530) | 0.00621 | -0.302
